Results from patent US4826958A (Abbott Laboratories, priority 1988, dated 1989).

Experiment: general procedure: solution-phase peptide synthesis
Settings: coupling step

Row | Substance | step yield [% yield]
1 | Boc-(α-Naphthyl)Ala-Ala-Sta amide of methioninol | 76
2 | Boc-(α-Naphthyl)Ala-Ala-Sta-amide of isoleucinol | 81
